Results from patent US20020188202A1, “Method of diagnosis and treatment and related compositions and apparatus” (priority 1996, published 2002).

System: patients with cerebral vasospasm
Test: Vasoactive medications tried on Applicant's patients with vasospasm, monitored by Transcranial Doppler (TCD), exam and symptoms
Details: qualitative rating in Applicant's patient population (tend to be the most severe cases)

N=C(N)NCCN1CCCCCCC1 [Ismelin, Guanethidine]
effectiveness in treating the vasospasm: less successful results
